# Assay results taken from the supplement of paper PMC8728848.
# The list shows a part of the results.
# B1: LlpB (Pseudomonas fluorescens) (protein)
# chain: MGSSHHHHHHSSGLVPRGSHMASSGFRIILFNSANNGTAILPPRNCLVAGQYLESPSKRYKLILEADGNLRLYDNGVPIWVADSSVPYTYVDNRPNTNLVTCFYMQGSAFLVDRVGSRTWATIGDWIDGAADRAYLQVQDDGNVVVVDGVPRWARFGFTPAALPNRGVFYPDHGTGPLPSFPVWSWTF
# What was measured:
# Assay in all cases: glycan array binding signal (z-score within array); higher = stronger binding
# Conditions in all cases: glycan notation: IUPAC condensed, linker removed
# [1] = target: Fuc(a1-2)[GalNAc(a1-3)]Gal(b1-3)GlcNAc(b1-6)GalNAc
# In short: (§1)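 Glycan array binding is given as a within-array Z-score, which can be read as non-binding when negative. The arrays, 3228 of them, came from the Consortium for Functional Glycomics database and were retained only where the protein sequence was available. Z-scores were averaged across arrays of the same protein sequence at different concentrations or buffers and across linkers.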
# [2] = target: Fuc(a1-2)[GalNAc(a1-3)]Gal(b1-4)Glc
# In short: as §1
# [3] = target: Fuc(a1-2)[GalNAc(a1-3)]Gal(b1-4)GlcNAc
# In short: as §1
# [4] = target: Fuc(a1-2)[GalNAc(a1-3)]Gal(b1-4)GlcNAc(b1-2)Man
# In short: as §1
# [5] = target: Fuc(a1-2)[GalNAc(a1-3)]Gal(b1-4)GlcNAc(b1-2)Man(a1-3)[Fuc(a1-2)[GalNAc(a1-3)]Gal(b1-4)GlcNAc(b1-2)Man(a1-6)]Man(b1-4)GlcNAc(b1-4)GlcNAc
# In short: as §1
# [6] = target: Fuc(a1-2)[GalNAc(a1-3)]Gal(b1-4)GlcNAc(b1-2)Man(a1-3)[Fuc(a1-2)[GalNAc(a1-3)]Gal(b1-4)GlcNAc(b1-2)Man(a1-6)]Man(b1-4)GlcNAc(b1-4)[Fuc(a1-6)]GlcNAc
# In short: as §1
# [7] = target: Fuc(a1-2)[GalNAc(a1-3)]Gal(b1-4)GlcNAc(b1-3)Gal(b1-4)GlcNAc
# In short: as §1
# [8] = target: Fuc(a1-2)[GalNAc(a1-3)]Gal(b1-4)GlcNAc(b1-3)Gal(b1-4)GlcNAc(b1-3)Gal(b1-4)GlcNAc
# In short: as §1
# [9] = target: Fuc(a1-2)[GalNAc(a1-3)]Gal(b1-4)GlcNAc(b1-3)GalNAc
# In short: as §1
# [10] = target: Fuc(a1-2)[GalNAc(a1-3)]Gal(b1-4)GlcNAc(b1-3)[Fuc(a1-2)[GalNAc(a1-3)]Gal(b1-4)GlcNAc(b1-6)]GalNAc
# In short: as §1
# [11] = target: Fuc(a1-2)[GalNAc(a1-3)]Gal(b1-4)GlcNAc(b1-6)GalNAc
# In short: as §1
# [12] = target: Fuc(a1-2)[GalNAc(a1-3)]Gal(b1-4)[Fuc(a1-3)]GlcNAc
# In short: as §1
# [13] = target: Fuc(a1-2)[GalNAc(a1-3)]Gal(b1-4)[Fuc(a1-3)]GlcNAc(b1-3)GalNAc
# In short: as §1
# [14] = target: Fuc(a1-2)[GalNAc(a1-4)]Gal(b1-4)GlcNAc
# In short: as §1
# [15] = target: Fuc(a1-2)[GalNAc(b1-3)]Gal
# In short: as §1
# Fuc(a1-3)GlcNAc = target: Fuc(a1-3)GlcNAc
# In short: as §1
# [16] = target: Fuc(a1-3)[Gal(b1-4)]Glc6S
# In short: as §1
# [17] = target: Fuc(a1-3)[Gal(b1-4)]GlcNAc
# In short: as §1
# [18] = target: Fuc(a1-3)[Gal(b1-4)]GlcNAc(b1-2)Man
# In short: as §1
# [19] = target: Fuc(a1-3)[Gal(b1-4)]GlcNAc(b1-2)Man(a1-3)[Fuc(a1-3)[Gal(b1-4)]GlcNAc(b1-2)Man(a1-6)]Man(b1-4)GlcNAc(b1-4)GlcNAc
# In short: as §1
# [20] = target: Fuc(a1-3)[Gal(b1-4)]GlcNAc(b1-2)Man(a1-3)[Fuc(a1-3)[Gal(b1-4)]GlcNAc(b1-2)Man(a1-6)]Man(b1-4)GlcNAc(b1-4)[Fuc(a1-6)]GlcNAc
# In short: as §1
# [21] = target: Fuc(a1-3)[Gal(b1-4)]GlcNAc(b1-3)Gal(b1-3)[Fuc(a1-4)]GlcNAc
# In short: as §1
# [22] = target: Fuc(a1-3)[Gal(b1-4)]GlcNAc(b1-3)Gal(b1-4)[Fuc(a1-3)]GlcNAc
# In short: as §1
# [23] = target: Fuc(a1-3)[Gal(b1-4)]GlcNAc(b1-3)Gal(b1-4)[Fuc(a1-3)]GlcNAc(b1-3)Gal(b1-4)[Fuc(a1-3)]GlcNAc
# In short: as §1
# [24] = target: Fuc(a1-3)[Gal(b1-4)]GlcNAc(b1-3)GalNAc
# In short: as §1
# [25] = target: Fuc(a1-3)[Gal(b1-4)]GlcNAc(b1-6)GalNAc
# In short: as §1
# [26] = target: Fuc(a1-3)[Gal(b1-4)]GlcNAc(b1-6)[Gal(b1-3)GlcNAc(b1-3)]Gal(b1-4)Glc
# In short: as §1
# [27] = target: Fuc(a1-3)[Gal(b1-4)]GlcNAc6S
# In short: as §1
# [28] = target: Fuc(a1-3)[Gal3S(b1-4)]Glc
# In short: as §1
# [29] = target: Fuc(a1-3)[Gal3S(b1-4)]GlcNAc
# In short: as §1
# [30] = target: Fuc(a1-3)[Gal3S(b1-4)]GlcNAc6S
# In short: as §1
# [31] = target: Fuc(a1-3)[GalNAc(b1-4)]GlcNAc
# In short: as §1
# [32] = target: Fuc(a1-3)[GalNAc(b1-4)]GlcNAc6S
# In short: as §1
# Fuc(a1-4)GlcNAc = target: Fuc(a1-4)GlcNAc
# In short: as §1
# Fuc(b1-3)GlcNAc = target: Fuc(b1-3)GlcNAc
# In short: as §1
# Gal(a1-2)Gal = target: Gal(a1-2)Gal
# In short: as §1
# Gal(a1-3)Gal = target: Gal(a1-3)Gal
# In short: as §1
# Gal(a1-3)Gal(b1-3)GlcNAc = target: Gal(a1-3)Gal(b1-3)GlcNAc
# In short: as §1
# [33] = target: Gal(a1-3)Gal(b1-3)GlcNAc(b1-2)Man
# In short: as §1
# [34] = target: Gal(a1-3)Gal(b1-3)GlcNAc(b1-2)Man(a1-3)[Gal(a1-3)Gal(b1-3)GlcNAc(b1-2)Man(a1-6)]Man(b1-4)GlcNAc(b1-4)GlcNAc
# In short: as §1
# [35] = target: Gal(a1-3)Gal(b1-3)GlcNAc(b1-3)GalNAc
# In short: as §1
# [36] = target: Gal(a1-3)Gal(b1-3)GlcNAc(b1-6)GalNAc
# In short: as §1
# [37] = target: Gal(a1-3)Gal(b1-3)[Fuc(a1-4)]GlcNAc(b1-2)Man(a1-3)[Gal(a1-3)Gal(b1-3)[Fuc(a1-4)]GlcNAc(b1-2)Man(a1-6)]Man(b1-4)GlcNAc(b1-4)GlcNAc
# In short: as §1
# Gal(a1-3)Gal(b1-4)Glc = target: Gal(a1-3)Gal(b1-4)Glc
# In short: as §1
# Gal(a1-3)Gal(b1-4)GlcNAc = target: Gal(a1-3)Gal(b1-4)GlcNAc
# In short: as §1
binder,measurement,setting,value
B1,glycan array binding signal (z-score),[1],-0.658
same,glycan array binding signal (z-score),[2],-0.54
same,glycan array binding signal (z-score),[3],0.119
same,glycan array binding signal (z-score),[4],-0.974
same,glycan array binding signal (z-score),[5],-0.94
same,glycan array binding signal (z-score),[6],-0.872
same,glycan array binding signal (z-score),[7],-0.594
same,glycan array binding signal (z-score),[8],0.192
same,glycan array binding signal (z-score),[9],-1.58
same,glycan array binding signal (z-score),[10],-1.02
same,glycan array binding signal (z-score),[11],-0.874
same,glycan array binding signal (z-score),[12],0.73
same,glycan array binding signal (z-score),[13],0.076
same,glycan array binding signal (z-score),[14],-0.099
same,glycan array binding signal (z-score),[15],1.75
same,glycan array binding signal (z-score),Fuc(a1-3)GlcNAc,1.64
same,glycan array binding signal (z-score),[16],0.695
same,glycan array binding signal (z-score),[17],-0.593
same,glycan array binding signal (z-score),[18],0.352
same,glycan array binding signal (z-score),[19],0.125
same,glycan array binding signal (z-score),[20],0.302
same,glycan array binding signal (z-score),[21],-1.01
same,glycan array binding signal (z-score),[22],1.4
same,glycan array binding signal (z-score),[23],-0.948
same,glycan array binding signal (z-score),[24],0.389
same,glycan array binding signal (z-score),[25],0.909
same,glycan array binding signal (z-score),[26],-0.683
same,glycan array binding signal (z-score),[27],-0.288
same,glycan array binding signal (z-score),[28],-0.747
same,glycan array binding signal (z-score),[29],-0.836
same,glycan array binding signal (z-score),[30],0.887
same,glycan array binding signal (z-score),[31],2.26
same,glycan array binding signal (z-score),[32],0.363
same,glycan array binding signal (z-score),Fuc(a1-4)GlcNAc,-1.58
same,glycan array binding signal (z-score),Fuc(b1-3)GlcNAc,1.29
same,glycan array binding signal (z-score),Gal(a1-2)Gal,0.556
same,glycan array binding signal (z-score),Gal(a1-3)Gal,-0.672
same,glycan array binding signal (z-score),Gal(a1-3)Gal(b1-3)GlcNAc,-0.923
same,glycan array binding signal (z-score),[33],0.466
same,glycan array binding signal (z-score),[34],0.541
same,glycan array binding signal (z-score),[35],0.257
same,glycan array binding signal (z-score),[36],-0.613
same,glycan array binding signal (z-score),[37],-0.757
same,glycan array binding signal (z-score),Gal(a1-3)Gal(b1-4)Glc,-0.46
same,glycan array binding signal (z-score),Gal(a1-3)Gal(b1-4)GlcNAc,-0.46
